Assay results from publication PMC7785802, “Therapeutic Efficacy of a Trichinella Spiralis Paramyosin-Derived Peptide Modified With a Membrane-Targeting Signal in Mice With Antigen-Induced Arthritis” (Frontiers in Microbiology, 2020).
No constants are given. Whether binding was seen depends on the method and setting.

Amino acid sequences for entries named in this document (tags omitted). Residues count along the entry.
UniProt P02748, residues 22-559: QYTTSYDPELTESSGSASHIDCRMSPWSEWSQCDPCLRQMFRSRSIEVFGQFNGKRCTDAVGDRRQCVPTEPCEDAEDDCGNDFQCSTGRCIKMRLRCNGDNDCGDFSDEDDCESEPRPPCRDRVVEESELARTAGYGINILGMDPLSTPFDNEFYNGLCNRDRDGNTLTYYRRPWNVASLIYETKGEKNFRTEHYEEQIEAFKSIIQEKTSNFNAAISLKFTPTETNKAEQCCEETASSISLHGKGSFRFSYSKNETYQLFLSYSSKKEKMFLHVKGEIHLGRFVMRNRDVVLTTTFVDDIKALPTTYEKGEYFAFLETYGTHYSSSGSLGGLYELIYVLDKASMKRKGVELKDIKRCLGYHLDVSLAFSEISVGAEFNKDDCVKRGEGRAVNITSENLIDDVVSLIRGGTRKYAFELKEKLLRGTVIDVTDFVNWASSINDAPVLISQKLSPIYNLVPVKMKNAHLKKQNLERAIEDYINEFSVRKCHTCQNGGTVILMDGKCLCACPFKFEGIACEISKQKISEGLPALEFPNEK

Molecular target: human complement component C9 (human) (UniProt P02748)
Experiment: MST; both purified

binding: no binding (tested: 1.68 mM)
Binder: GKMSVMSVYKSVLS [control peptide (…)]
